Data: the M2OR odorant receptor database
The list shows a part of the results, in another mix than the full data. The calls were merged from several studies; some rest on single wells. The list shows a part of the results. Some of the results follow.

How the values were obtained:
Settings in all cases: stereoisomer not certain
OR2W1 = tested on: T1, OR2W1
T1 sequence (whole entry): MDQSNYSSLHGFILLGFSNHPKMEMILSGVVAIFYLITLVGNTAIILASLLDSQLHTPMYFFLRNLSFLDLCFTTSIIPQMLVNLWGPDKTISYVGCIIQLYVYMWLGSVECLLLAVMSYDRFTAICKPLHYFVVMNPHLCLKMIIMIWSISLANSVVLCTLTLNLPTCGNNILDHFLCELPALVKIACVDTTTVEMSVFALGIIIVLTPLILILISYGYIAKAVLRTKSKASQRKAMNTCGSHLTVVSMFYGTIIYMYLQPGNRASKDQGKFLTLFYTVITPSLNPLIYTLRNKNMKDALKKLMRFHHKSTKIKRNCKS
How it was run: (§1)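 Assay methods differ from source to source, frequently being transient luciferase assays in mammalian cell lines. For each receptor–molecule pair, the label responsive (active) applies when the original authors judged the measured signal statistically different from baseline, and non-responsive (inactive) applies otherwise.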

OR2W3 = tested on: T2, OR2W3
T2 sequence (whole entry): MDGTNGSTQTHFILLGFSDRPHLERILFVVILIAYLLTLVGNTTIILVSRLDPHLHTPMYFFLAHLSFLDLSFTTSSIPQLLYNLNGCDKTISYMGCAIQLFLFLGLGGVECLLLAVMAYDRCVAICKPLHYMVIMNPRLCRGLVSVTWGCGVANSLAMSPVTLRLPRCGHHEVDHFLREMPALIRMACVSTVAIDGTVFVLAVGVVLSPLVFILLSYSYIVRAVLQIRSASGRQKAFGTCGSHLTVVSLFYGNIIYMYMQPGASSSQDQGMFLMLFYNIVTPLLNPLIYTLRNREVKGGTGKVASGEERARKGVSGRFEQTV
How it was run: as §1

OR2W5P (Homo sapiens) = target: T3, OR2W5P (Homo sapiens) (UniProt A6NFC9)
T3 sequence (whole entry): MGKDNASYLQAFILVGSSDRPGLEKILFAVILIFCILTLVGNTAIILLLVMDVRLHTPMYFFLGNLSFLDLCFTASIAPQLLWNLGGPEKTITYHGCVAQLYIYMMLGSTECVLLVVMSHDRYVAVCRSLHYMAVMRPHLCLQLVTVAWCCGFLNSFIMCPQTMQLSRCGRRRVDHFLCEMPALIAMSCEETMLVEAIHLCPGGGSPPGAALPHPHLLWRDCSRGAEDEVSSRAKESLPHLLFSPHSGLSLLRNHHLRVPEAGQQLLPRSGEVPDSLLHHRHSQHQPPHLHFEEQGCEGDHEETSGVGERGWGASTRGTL
How it was run: as §1

OR2Y1 = tested on: T4, OR2Y1
T4 sequence (whole entry): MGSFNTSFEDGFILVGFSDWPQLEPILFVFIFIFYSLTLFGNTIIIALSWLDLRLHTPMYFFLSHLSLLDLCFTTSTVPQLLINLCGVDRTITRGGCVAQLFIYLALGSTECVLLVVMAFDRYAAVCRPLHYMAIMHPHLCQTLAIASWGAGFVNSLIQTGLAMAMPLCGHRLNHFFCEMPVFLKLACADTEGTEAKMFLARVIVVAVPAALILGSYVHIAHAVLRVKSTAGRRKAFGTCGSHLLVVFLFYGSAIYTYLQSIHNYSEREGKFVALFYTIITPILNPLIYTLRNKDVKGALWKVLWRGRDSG
How it was run: as §1

OR2Z1 (Homo sapiens) = target: T5, OR2Z1 (Homo sapiens) (UniProt Q8NG97)
T5 sequence (whole entry): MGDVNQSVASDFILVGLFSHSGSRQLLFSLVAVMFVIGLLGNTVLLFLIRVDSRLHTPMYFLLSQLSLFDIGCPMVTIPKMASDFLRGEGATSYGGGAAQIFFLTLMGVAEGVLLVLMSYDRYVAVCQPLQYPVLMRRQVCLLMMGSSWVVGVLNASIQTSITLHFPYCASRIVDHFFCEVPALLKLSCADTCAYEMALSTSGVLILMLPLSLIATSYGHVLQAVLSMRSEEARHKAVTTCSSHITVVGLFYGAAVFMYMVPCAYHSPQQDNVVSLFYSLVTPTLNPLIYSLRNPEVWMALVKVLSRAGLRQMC
How it was run: as §1

OR3A1 (Homo sapiens) = target: T6, OR3A1 (Homo sapiens) (UniProt P47881)
T6 sequence (whole entry): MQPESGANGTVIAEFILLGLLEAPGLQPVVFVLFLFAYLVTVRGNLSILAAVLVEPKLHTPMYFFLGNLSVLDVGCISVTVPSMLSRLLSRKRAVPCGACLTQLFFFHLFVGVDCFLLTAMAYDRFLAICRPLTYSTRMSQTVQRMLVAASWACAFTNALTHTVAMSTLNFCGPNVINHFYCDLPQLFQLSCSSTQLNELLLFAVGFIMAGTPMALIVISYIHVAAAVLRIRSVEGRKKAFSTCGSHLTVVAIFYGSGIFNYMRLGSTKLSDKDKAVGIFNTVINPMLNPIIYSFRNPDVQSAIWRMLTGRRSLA
How it was run: as §1

OR3A2 (Homo sapiens) = target: T7, OR3A2 (Homo sapiens) (UniProt P47893)
T7 sequence (whole entry): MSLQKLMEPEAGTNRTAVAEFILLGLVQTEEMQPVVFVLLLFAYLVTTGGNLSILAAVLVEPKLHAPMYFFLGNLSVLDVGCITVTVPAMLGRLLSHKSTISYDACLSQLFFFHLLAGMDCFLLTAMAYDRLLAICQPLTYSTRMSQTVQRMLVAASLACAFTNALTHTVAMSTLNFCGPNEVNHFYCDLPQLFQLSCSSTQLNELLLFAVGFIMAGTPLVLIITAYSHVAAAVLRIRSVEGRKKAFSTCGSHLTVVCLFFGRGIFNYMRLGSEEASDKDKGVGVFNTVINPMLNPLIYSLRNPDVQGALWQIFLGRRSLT
How it was run: as §1

OR3A3 = tested on: T8, OR3A3
T8 sequence (whole entry): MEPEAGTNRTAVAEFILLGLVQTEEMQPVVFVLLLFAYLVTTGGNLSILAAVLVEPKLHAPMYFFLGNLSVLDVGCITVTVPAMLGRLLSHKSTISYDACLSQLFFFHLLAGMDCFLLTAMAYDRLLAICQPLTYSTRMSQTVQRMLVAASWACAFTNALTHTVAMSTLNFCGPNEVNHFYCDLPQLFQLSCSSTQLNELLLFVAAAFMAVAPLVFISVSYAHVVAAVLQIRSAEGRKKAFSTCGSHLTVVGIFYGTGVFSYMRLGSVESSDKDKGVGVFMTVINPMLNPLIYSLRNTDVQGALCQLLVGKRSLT
How it was run: as §1

OR3A4 = tested on: T9, OR3A4
T9 sequence (whole entry): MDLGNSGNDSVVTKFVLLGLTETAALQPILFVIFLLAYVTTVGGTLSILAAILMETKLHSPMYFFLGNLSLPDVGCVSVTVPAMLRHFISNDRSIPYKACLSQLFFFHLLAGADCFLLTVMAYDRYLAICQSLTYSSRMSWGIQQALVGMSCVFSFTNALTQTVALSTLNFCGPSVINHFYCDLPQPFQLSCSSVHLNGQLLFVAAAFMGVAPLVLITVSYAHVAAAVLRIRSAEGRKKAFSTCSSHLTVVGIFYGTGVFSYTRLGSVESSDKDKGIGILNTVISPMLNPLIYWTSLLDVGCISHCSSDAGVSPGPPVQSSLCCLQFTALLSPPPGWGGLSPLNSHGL
How it was run: as §1

OR4A16 (Homo sapiens) = target: T10, OR4A16 (Homo sapiens) (UniProt Q8NH70)
T10 sequence (whole entry): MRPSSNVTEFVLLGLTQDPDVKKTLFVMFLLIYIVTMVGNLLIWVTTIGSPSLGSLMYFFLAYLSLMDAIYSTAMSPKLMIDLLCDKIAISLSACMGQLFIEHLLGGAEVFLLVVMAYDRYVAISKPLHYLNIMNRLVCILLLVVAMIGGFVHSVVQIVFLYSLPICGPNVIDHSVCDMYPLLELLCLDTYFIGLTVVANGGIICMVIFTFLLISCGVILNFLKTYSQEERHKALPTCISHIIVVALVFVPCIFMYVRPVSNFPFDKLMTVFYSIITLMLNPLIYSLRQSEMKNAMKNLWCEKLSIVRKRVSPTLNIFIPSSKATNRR
How it was run: as §1

OR4A4P (Homo sapiens) = target: T11, OR4A4P (Homo sapiens) (UniProt Q8NGN8)
T11 sequence (whole entry): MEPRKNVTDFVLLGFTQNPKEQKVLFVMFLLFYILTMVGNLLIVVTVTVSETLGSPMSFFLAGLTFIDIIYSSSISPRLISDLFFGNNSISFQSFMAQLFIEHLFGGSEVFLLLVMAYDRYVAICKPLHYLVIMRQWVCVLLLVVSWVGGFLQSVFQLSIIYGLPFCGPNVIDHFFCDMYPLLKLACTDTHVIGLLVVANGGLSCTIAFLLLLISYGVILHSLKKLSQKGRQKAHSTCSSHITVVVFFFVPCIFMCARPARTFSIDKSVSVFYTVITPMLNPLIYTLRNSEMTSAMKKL
How it was run: as §1

OR4A5 (Homo sapiens) = target: T12, OR4A5 (Homo sapiens) (UniProt Q8NH83)
T12 sequence (whole entry): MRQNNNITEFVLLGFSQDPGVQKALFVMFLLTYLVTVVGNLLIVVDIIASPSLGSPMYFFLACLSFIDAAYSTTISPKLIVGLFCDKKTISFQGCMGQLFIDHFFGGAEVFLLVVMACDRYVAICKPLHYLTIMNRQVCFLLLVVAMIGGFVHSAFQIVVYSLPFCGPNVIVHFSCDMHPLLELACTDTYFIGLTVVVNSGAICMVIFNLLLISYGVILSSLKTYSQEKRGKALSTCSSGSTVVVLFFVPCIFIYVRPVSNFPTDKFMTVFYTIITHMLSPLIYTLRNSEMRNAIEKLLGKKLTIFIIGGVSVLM
How it was run: as §1

OR4A5 = tested on: T13, OR4A5
T13 sequence (whole entry): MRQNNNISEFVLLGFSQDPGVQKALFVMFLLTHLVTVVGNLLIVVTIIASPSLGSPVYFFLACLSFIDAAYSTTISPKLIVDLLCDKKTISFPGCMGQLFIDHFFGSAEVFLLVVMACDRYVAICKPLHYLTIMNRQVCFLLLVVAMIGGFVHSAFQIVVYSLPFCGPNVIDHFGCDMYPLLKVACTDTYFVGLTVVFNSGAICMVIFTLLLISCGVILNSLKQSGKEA
How it was run: as §1

OR4B1 (Homo sapiens) = target: T14, OR4B1 (Homo sapiens) (UniProt Q8NGF8)
T14 sequence (whole entry): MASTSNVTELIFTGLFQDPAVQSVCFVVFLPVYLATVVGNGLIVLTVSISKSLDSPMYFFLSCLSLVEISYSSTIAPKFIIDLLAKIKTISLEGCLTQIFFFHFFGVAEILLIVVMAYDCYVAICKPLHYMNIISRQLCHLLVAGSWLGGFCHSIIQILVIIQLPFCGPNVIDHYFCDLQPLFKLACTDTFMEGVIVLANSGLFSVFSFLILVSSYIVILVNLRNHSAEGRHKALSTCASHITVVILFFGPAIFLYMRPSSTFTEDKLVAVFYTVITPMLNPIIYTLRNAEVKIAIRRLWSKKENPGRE
How it was run: as §1

OR4C11 (Homo sapiens) = target: T15, OR4C11 (Homo sapiens) (UniProt Q6IEV9)
T15 sequence (whole entry): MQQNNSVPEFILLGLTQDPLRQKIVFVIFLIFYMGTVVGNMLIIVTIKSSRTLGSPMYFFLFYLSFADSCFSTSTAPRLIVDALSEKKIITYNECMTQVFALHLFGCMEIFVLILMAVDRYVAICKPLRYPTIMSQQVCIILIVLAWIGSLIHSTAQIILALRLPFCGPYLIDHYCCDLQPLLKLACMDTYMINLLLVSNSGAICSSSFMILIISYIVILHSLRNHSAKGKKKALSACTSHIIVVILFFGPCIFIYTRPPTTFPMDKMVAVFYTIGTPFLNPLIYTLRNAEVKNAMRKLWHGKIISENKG
How it was run: as §1

OR2W3 (Homo sapiens) = target: T16, OR2W3 (Homo sapiens) (UniProt Q7Z3T1)
T16 sequence (whole entry): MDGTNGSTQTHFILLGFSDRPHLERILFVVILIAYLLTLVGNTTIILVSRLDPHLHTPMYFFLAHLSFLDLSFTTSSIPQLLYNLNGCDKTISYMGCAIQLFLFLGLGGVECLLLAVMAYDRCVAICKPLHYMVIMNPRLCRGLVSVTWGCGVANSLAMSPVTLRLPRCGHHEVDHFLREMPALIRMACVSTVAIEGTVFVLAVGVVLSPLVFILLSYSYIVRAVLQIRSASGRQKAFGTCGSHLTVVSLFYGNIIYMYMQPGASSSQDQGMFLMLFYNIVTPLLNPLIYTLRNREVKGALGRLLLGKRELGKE
How it was run: as §1

Structure (SMILES) | odorant receptor agonist call (OR2W1) | odorant receptor agonist call (OR2W3) | odorant receptor agonist call (OR2W5P (Homo sapiens)) | odorant receptor agonist call (OR2Y1) | odorant receptor agonist call (OR2Z1 (Homo sapiens)) | odorant receptor agonist call (OR3A1 (Homo sapiens)) | odorant receptor agonist call (OR3A2 (Homo sapiens)) | odorant receptor agonist call (OR3A3) | odorant receptor agonist call (OR3A4) | odorant receptor agonist call (OR4A16 (Homo sapiens)) | odorant receptor agonist call (OR4A4P (Homo sapiens)) | odorant receptor agonist call (OR4A5 (Homo sapiens)) | odorant receptor agonist call (OR4A5) | odorant receptor agonist call (OR4B1 (Homo sapiens)) | odorant receptor agonist call (OR4C11 (Homo sapiens)) | odorant receptor agonist call (OR2W3 (Homo sapiens))
CCCCCOC(C)=O | inactive | inactive | inactive | inactive | inactive | inactive | inactive | inactive | inactive | inactive | inactive | active | inactive | inactive | inactive | –
CC(C)CC(=O)O | inactive | inactive | inactive | inactive | inactive | inactive | inactive | inactive | inactive | inactive | inactive | inactive | inactive | inactive | inactive | inactive
